From the supplement of paper PMC11006884
Only a part is listed here, and it is no random draw. Single values of this set are uncertain.

Amino acid sequences for entries named in this document (tags omitted). A change or cut given only in a name is not applied to a line headed by its entry.
UniProt Q15723: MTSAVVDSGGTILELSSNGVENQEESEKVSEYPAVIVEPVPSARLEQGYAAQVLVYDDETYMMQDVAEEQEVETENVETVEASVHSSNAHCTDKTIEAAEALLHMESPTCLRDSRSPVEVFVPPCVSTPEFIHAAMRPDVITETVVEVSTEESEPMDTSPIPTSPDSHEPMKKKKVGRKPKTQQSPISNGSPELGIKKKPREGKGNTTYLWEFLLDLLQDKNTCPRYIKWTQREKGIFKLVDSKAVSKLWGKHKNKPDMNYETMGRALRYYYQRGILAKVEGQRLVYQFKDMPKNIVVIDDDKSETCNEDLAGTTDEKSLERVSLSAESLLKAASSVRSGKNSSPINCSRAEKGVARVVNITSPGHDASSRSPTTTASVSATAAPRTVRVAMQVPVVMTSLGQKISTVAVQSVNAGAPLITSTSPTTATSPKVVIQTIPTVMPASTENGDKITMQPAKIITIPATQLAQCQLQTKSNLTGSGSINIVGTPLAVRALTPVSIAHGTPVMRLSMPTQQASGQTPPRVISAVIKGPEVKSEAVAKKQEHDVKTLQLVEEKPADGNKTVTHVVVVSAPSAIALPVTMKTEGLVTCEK
UniProt Q16718, whole entry: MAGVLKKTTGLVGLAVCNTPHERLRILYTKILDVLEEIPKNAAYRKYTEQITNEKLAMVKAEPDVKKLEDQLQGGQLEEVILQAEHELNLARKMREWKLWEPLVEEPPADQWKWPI
UniProt Q15813: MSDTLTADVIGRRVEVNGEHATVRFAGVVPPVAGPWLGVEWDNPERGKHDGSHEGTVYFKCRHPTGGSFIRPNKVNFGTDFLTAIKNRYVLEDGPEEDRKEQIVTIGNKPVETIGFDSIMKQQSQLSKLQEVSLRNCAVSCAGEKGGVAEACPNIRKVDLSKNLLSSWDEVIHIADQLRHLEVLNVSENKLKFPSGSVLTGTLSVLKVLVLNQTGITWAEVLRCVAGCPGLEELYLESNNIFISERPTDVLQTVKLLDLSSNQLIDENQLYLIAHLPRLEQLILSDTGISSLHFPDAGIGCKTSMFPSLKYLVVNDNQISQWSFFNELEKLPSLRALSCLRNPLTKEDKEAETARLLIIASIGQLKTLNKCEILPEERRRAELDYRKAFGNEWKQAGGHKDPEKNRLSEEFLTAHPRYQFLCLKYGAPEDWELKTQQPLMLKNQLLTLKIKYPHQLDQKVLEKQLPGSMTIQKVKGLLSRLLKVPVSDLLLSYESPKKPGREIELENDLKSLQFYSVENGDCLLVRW
UniProt Q15393: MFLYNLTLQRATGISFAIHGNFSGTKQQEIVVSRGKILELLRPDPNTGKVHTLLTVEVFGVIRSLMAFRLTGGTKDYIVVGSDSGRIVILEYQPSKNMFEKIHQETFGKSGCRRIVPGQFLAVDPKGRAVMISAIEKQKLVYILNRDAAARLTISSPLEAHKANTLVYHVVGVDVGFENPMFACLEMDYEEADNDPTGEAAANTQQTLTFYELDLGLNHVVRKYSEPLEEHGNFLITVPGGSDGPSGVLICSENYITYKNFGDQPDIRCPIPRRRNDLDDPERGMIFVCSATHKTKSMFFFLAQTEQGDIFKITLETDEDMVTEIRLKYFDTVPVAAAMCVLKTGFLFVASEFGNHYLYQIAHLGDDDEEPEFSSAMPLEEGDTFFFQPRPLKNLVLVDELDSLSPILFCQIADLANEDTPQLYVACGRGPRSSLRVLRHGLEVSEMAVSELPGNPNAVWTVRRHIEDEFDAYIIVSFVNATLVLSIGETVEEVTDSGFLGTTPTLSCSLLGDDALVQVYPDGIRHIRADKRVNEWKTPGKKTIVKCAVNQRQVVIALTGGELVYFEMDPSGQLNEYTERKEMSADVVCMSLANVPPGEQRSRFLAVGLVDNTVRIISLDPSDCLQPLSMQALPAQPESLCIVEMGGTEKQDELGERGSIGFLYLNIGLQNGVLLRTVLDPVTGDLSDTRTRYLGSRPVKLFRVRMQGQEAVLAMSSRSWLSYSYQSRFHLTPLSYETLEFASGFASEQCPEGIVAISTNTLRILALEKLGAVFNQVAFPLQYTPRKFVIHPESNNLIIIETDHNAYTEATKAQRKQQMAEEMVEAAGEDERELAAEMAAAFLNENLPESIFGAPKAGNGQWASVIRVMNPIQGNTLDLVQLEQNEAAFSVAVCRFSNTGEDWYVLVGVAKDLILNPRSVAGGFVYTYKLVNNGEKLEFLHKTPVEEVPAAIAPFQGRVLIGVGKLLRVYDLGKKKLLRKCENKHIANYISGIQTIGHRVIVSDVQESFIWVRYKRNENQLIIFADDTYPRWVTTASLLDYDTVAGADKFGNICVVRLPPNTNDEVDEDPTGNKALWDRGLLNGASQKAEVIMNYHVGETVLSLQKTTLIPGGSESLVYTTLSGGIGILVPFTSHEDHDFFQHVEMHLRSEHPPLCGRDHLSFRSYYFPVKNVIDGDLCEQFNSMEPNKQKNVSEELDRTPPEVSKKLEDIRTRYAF
UniProt Q53GS7: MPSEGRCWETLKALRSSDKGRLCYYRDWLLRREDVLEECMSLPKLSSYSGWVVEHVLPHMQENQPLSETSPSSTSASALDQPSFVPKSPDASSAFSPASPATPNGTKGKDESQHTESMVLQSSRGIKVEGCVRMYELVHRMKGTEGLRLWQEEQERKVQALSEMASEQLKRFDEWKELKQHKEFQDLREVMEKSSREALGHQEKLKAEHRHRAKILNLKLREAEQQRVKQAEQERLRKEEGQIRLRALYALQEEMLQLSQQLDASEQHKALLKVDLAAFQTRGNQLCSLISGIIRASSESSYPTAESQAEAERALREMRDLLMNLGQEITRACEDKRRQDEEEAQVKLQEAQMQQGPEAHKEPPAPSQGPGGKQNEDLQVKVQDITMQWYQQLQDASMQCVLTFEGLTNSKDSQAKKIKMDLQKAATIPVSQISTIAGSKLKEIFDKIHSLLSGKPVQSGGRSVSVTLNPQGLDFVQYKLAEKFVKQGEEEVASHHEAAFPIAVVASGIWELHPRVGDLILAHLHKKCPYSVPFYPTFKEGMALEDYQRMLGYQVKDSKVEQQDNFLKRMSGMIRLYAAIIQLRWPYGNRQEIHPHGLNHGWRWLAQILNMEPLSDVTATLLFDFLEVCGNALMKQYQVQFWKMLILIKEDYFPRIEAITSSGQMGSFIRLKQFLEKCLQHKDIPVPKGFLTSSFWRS
UniProt Q16576, whole entry, looked up: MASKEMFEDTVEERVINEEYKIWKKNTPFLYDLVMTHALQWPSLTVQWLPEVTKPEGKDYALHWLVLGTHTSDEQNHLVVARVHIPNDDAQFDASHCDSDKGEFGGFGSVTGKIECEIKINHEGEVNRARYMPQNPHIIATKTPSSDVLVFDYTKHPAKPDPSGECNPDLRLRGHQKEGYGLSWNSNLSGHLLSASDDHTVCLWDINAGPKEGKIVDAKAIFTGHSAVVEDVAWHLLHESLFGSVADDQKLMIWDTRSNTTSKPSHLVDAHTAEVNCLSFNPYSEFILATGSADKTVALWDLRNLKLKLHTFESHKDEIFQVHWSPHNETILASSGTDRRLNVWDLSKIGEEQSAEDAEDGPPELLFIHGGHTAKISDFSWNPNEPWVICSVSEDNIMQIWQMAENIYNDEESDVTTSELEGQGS
UniProt Q27J81, whole entry, looked up: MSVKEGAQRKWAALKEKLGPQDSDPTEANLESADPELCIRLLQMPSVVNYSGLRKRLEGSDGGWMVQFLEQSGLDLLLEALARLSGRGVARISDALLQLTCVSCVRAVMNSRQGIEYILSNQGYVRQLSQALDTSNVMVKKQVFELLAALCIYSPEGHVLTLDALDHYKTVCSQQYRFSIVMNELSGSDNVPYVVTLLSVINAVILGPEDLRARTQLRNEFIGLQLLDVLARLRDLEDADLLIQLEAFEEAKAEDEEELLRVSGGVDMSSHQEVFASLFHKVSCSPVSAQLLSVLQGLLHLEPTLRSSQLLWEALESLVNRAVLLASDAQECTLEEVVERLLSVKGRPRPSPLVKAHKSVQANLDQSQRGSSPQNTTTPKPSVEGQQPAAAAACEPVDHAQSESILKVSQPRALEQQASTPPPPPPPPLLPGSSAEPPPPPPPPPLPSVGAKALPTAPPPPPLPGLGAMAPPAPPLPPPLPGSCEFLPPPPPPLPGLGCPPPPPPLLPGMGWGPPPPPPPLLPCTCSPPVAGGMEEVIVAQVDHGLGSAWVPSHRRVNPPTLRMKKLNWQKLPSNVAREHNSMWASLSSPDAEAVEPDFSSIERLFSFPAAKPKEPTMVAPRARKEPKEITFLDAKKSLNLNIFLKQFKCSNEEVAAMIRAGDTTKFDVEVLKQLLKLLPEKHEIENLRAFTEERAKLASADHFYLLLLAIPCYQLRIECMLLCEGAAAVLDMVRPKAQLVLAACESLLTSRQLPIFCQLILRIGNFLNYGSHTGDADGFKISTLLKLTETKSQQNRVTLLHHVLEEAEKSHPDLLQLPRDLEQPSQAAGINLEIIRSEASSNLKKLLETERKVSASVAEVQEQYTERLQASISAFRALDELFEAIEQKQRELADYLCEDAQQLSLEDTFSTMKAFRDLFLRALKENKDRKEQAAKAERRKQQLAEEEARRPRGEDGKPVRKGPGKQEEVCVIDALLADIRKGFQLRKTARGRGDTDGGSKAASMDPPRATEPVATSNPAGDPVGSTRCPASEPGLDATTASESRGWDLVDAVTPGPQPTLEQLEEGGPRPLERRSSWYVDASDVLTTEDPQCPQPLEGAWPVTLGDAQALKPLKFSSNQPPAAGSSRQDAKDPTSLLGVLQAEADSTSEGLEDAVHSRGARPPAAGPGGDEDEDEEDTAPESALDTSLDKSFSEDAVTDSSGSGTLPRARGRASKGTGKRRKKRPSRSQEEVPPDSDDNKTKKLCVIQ
UniProt Q2VPB7: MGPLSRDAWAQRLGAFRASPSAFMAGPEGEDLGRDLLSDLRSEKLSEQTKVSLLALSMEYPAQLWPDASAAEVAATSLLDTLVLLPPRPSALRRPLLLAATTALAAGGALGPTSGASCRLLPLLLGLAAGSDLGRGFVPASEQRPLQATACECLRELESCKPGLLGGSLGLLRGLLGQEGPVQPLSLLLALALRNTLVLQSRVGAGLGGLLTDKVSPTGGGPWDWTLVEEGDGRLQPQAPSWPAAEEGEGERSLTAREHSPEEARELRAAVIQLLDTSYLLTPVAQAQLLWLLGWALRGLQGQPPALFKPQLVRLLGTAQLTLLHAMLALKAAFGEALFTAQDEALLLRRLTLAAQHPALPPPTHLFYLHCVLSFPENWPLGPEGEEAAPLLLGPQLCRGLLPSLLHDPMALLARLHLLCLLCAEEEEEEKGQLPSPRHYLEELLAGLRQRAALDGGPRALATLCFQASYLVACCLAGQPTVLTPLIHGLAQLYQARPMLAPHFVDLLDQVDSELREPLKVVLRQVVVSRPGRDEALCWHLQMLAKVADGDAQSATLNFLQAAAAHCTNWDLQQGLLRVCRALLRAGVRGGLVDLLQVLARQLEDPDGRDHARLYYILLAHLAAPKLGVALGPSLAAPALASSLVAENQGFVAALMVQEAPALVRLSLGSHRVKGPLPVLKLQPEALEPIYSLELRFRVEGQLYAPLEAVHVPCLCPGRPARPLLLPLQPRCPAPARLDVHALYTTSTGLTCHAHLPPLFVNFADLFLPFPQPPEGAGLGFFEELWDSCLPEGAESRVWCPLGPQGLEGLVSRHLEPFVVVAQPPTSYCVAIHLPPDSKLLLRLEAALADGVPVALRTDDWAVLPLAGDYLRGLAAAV
UniProt Q3KQU3: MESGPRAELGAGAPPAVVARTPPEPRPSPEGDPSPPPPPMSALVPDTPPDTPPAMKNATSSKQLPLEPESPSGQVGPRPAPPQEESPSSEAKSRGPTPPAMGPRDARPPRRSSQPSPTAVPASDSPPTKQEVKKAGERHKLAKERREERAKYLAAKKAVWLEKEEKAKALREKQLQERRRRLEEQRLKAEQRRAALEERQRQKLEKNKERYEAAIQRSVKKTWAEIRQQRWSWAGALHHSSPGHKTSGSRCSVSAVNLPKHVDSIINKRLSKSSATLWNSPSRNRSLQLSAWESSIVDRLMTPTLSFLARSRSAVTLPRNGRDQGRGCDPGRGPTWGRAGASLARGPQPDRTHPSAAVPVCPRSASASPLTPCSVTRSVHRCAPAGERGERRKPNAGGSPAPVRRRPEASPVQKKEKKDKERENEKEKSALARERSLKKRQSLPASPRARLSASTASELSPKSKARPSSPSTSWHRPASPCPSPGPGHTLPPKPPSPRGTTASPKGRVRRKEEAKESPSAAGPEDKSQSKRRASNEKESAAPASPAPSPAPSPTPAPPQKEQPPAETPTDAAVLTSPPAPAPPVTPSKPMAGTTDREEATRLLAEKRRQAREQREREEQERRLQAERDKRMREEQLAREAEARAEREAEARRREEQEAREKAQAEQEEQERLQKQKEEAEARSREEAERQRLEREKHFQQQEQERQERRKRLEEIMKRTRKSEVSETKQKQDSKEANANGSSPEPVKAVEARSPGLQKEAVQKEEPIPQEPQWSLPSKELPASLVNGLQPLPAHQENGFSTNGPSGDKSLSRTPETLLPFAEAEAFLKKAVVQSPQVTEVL

compound: COC(=O)/C=C/c1ccccc1 [methyl cinnamate]; assay: log2 ratio of iodoacetamide-alkyne labeling of the cysteine site, DMSO over compound (competition); higher = stronger covalent engagement of the cysteine by the compound, active = 1 or more; settings: 500 µM; treatment time 1 h; system: HEK293T cell lysate
Outline: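 Reporter intensities give each cysteine's log2 competition ratio as the mean of control channels over the mean of compound channels. The samples were HEK293T lysate (2 mg/mL) given vehicle or electrophile (500 µM, 1 h, ambient temperature), then iodoacetamide alkyne (1 h), followed by click coupling to sCIP-TMT reagents, pooling, trypsin digestion overnight at 37 °C, streptavidin enrichment, acid elution, Orbitrap Eclipse LC-MS/MS with FAIMS and FragPipe quantification. Duplicate channels and three replicates were run, and cysteines quantified in only one replicate were discarded.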

| Target | log2 ratio of iodoacetamide-alkyne labeling |
| --- | --- |
| ELF2 C307 (UniProt Q15723) | inactive: 0.497 |
| UniProt Q16625_C409 | inactive: 0.158 |
| ACOX1 C449 (UniProt Q15067) | inactive: 0.0541 |
| ELF2 C470 (UniProt Q15723) | inactive: 0.427 |
| ETFDH C387 (UniProt Q16134) | inactive: 0.0755 |
| PDCD4 C227 (UniProt Q53EL6) | inactive: 0.0405 |
| ETFDH C561 (UniProt Q16134) | inactive: 0.0665 |
| SF3A1 C244 (UniProt Q15459) | inactive: 0.178 |
| UniProt Q15149_C3299 | inactive: 0.24 |
| NDUFA5 C17 (UniProt Q16718) | inactive: 0.301 |
| SETDB1 C1226 (UniProt Q15047) | inactive: 0.305 |
| TBCE C301 (UniProt Q15813) | inactive: 0.0681 |
| SF3B3 C1054 (UniProt Q15393) | inactive: 0.606 |
| GLE1 C287 (UniProt Q53GS7) | inactive: 0.394 |
| AMOT C1047 (UniProt Q4VCS5) | inactive: 0.253 |
| SF3B3 C1179 (UniProt Q15393) | inactive: 0.0366 |
| HNRNPUL2 C308 (UniProt Q1KMD3) | inactive: 0.241 |
| RBBP7 C202 (UniProt Q16576) | inactive: 0.0827 |
| LRRC41 C297 (UniProt Q15345) | inactive: 0.172 |

Single entries from above.
Under log2 ratio of iodoacetamide-alkyne labeling, SF3A1 C244 (UniProt Q15459) has inactive: 0.178
Under log2 ratio of iodoacetamide-alkyne labeling, NDUFA5 C17 (UniProt Q16718) has inactive: 0.301
Under log2 ratio of iodoacetamide-alkyne labeling, UniProt Q15149_C3299 has inactive: 0.24

Further entries follow.

| Target | log2 ratio of iodoacetamide-alkyne labeling |
| --- | --- |
| RALBP1 C451 (UniProt Q15311) | inactive: 0.278 |
| PDS5A C242 (UniProt Q29RF7) | inactive: -0.164 |
| ERCC6L C356 (UniProt Q2NKX8) | inactive: 0.199 |
| FAM98B C216 (UniProt Q52LJ0) | inactive: -0.0153 |
| PON2 C283 (UniProt Q15165) | inactive: -0.274 |
| KIF14 C442 (UniProt Q15058) | inactive: 0.345 |
| INF2 C1029 (UniProt Q27J81) | inactive: 0.27 |
| EFTUD2 C148 (UniProt Q15029) | inactive: 0.0118 |
| TCEAL1 C88 (UniProt Q15170) | inactive: 0.308 |
| SEC23A C180 (UniProt Q15436) | inactive: 0.0171 |
| AP5B1 C800 (UniProt Q2VPB7) | inactive: 0.604 |
| PCM1 C1999 (UniProt Q15154) | inactive: -0.0893 |
| NCOA1 C831 (UniProt Q15788) | inactive: 0.119 |
| PAFAH1B3 C205 (UniProt Q15102) | inactive: 0.28 |
| SUZ12 C494 (UniProt Q15022) | inactive: 0.0236 |
| PMVK C38 (UniProt Q15126) | inactive: 0.132 |
| PPA1 C113 (UniProt Q15181) | inactive: 0.225 |
| MAP7D1 C373 (UniProt Q3KQU3) | inactive: 0.105 |
| GEN1 C866 (UniProt Q17RS7) | inactive: 0.472 |
